Test results taken from the supplement of paper PMC7666118.
This is one part of the list.

By UniProt entry, the sequences of proteins in these tests, tags left out. Where a name states a change or a piece, a line headed by the entry shows the natural chain unless it says otherwise.
UniProt Q93074, whole entry: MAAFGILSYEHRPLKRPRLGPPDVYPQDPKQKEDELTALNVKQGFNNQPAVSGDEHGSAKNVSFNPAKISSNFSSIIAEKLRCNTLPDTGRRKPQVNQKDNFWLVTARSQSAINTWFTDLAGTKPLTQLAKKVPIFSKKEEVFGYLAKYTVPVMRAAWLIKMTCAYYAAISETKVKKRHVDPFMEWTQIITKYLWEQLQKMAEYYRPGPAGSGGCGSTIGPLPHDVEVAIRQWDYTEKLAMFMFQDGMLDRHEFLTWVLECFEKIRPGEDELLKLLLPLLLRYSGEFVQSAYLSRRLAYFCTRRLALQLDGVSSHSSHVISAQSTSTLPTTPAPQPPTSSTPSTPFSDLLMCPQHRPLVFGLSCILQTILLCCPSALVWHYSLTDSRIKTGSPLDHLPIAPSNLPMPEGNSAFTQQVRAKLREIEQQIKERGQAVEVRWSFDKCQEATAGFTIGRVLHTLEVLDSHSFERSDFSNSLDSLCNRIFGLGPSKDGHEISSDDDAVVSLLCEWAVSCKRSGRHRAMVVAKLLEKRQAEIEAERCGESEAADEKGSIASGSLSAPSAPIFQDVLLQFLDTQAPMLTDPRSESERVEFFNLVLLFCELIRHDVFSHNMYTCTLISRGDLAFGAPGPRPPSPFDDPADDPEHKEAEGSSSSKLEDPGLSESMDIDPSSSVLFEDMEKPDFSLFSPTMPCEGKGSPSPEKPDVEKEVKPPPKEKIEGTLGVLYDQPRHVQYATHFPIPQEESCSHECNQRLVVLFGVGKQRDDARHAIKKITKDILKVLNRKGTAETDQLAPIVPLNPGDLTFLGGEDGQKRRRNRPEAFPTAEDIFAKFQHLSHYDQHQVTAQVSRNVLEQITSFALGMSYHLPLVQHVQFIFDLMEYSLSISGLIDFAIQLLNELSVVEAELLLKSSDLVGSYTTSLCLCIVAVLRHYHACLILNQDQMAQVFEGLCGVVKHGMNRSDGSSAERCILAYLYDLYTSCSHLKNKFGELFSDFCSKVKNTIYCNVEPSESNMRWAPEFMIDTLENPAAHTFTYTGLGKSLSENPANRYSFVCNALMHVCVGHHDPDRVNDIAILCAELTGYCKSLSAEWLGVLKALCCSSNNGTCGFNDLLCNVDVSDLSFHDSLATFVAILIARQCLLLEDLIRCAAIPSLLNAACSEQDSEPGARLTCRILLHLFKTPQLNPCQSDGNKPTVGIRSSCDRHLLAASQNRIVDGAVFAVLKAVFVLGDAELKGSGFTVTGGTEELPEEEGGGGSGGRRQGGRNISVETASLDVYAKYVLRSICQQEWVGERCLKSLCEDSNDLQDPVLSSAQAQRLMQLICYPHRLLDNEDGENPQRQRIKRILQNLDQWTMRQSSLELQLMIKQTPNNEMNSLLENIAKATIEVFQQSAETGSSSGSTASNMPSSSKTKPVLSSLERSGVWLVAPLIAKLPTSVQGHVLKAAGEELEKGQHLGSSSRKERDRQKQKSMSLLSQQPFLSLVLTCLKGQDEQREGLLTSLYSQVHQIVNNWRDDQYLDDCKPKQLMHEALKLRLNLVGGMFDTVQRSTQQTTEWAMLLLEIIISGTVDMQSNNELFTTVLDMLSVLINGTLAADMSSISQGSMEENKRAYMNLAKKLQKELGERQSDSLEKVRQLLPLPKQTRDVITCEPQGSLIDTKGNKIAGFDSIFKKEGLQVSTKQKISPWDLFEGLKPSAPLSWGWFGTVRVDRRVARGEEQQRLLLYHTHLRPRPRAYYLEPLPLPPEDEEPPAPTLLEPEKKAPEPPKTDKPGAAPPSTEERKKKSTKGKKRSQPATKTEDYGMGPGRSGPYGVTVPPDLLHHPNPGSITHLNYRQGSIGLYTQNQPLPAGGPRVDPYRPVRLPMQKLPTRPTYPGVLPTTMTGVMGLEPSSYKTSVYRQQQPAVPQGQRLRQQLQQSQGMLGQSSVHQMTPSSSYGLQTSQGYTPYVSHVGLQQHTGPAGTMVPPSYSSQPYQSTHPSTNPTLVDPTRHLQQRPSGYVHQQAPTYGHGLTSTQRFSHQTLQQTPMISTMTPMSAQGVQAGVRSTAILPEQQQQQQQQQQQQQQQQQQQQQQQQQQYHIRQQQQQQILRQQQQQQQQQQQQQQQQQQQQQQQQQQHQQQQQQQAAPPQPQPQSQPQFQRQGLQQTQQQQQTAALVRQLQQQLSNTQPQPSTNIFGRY
UniProt Q03164, whole entry: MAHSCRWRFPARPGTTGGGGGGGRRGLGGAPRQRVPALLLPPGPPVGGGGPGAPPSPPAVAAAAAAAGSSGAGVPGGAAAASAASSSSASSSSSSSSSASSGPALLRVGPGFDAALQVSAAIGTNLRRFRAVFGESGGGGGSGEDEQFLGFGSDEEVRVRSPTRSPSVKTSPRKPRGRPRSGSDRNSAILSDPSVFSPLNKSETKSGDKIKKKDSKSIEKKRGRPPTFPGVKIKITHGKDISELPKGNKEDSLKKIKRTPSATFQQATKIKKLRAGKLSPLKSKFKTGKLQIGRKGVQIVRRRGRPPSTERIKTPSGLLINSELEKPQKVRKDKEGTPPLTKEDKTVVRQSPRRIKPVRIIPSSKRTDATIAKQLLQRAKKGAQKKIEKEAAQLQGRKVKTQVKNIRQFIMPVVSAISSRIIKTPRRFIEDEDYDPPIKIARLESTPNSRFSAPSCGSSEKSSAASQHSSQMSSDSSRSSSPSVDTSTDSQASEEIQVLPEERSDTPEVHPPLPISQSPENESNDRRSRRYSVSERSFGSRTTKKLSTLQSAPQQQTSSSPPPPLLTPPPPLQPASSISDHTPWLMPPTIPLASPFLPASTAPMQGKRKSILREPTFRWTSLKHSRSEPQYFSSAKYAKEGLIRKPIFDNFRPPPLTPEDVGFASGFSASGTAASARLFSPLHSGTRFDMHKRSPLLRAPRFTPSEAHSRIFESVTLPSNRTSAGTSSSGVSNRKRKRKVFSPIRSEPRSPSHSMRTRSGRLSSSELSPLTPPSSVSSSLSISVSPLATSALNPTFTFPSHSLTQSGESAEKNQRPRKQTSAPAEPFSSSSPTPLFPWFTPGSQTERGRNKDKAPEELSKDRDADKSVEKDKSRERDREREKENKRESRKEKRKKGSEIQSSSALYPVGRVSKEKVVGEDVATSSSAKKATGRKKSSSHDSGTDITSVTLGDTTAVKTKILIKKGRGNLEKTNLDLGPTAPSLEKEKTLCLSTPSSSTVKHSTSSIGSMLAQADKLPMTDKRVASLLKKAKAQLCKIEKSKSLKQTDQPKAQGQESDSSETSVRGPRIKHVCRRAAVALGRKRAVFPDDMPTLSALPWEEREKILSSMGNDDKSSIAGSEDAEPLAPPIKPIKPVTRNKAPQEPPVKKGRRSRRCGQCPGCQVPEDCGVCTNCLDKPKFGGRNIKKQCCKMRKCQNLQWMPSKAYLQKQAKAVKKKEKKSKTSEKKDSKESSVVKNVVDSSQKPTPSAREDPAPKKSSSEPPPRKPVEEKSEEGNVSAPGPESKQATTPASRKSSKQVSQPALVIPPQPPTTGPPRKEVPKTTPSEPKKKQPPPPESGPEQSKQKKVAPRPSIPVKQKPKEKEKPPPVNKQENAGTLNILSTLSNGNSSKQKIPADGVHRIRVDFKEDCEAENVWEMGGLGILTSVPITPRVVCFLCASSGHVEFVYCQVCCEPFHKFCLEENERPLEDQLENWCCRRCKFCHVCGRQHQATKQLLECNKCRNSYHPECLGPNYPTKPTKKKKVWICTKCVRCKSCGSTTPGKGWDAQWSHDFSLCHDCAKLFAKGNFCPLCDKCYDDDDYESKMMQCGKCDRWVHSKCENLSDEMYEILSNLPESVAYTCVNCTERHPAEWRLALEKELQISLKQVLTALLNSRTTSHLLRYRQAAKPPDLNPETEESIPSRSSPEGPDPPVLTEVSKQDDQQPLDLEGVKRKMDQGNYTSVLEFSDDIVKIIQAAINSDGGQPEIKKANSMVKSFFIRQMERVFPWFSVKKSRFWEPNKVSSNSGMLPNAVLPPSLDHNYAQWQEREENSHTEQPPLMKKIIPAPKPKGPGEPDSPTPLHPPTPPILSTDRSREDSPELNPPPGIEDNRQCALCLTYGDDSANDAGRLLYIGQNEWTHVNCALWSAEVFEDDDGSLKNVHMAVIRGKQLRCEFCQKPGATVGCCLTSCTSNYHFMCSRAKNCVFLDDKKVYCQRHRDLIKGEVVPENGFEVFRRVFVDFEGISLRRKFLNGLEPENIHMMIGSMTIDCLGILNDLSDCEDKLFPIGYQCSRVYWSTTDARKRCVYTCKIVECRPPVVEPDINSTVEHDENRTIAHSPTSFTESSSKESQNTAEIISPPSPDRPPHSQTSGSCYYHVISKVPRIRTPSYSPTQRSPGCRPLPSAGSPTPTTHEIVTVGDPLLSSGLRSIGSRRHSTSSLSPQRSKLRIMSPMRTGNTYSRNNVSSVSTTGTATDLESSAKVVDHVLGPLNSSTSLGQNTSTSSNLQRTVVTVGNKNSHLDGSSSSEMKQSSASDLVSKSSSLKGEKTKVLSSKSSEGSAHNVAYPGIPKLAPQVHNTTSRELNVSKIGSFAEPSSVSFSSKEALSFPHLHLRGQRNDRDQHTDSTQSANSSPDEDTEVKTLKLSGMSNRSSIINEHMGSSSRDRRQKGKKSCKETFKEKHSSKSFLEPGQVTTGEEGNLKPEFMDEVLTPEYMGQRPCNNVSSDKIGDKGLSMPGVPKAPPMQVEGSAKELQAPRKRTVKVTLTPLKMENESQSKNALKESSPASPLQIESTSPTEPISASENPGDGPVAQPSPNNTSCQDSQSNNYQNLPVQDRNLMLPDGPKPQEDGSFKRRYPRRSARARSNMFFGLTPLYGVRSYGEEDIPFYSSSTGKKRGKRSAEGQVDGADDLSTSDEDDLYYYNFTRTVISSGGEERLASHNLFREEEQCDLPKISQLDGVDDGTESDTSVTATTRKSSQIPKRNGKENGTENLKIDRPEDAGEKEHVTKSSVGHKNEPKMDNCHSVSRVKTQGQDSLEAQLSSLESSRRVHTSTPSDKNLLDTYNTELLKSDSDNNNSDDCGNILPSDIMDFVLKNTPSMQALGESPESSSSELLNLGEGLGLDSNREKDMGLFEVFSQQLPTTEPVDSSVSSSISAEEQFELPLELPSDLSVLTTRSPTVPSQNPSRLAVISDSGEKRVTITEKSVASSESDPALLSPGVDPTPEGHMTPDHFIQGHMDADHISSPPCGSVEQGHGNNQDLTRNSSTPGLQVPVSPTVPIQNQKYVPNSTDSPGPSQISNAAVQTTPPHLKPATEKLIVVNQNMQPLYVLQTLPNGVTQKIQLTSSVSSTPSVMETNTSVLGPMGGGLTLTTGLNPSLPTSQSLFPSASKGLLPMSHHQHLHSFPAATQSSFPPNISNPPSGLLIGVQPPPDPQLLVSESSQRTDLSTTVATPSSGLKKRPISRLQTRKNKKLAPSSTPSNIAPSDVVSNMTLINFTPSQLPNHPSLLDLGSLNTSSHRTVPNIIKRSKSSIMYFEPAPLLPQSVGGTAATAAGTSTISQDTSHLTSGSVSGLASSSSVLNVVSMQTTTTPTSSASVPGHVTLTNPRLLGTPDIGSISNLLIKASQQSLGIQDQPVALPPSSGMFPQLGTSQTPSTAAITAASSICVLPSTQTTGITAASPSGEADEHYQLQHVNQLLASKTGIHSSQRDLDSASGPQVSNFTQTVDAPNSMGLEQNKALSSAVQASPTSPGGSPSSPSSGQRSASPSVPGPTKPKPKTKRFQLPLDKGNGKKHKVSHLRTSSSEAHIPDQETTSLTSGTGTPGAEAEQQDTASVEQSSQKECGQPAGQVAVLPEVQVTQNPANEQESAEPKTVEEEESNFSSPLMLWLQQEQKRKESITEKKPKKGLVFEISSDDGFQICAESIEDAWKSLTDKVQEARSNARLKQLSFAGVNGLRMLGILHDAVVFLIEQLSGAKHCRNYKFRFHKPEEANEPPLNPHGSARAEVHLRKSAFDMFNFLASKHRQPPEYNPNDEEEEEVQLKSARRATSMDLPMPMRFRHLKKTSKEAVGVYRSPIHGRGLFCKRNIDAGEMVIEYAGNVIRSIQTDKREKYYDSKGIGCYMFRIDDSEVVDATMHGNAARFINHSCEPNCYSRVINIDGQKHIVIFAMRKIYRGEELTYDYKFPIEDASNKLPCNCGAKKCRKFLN
UniProt P53778: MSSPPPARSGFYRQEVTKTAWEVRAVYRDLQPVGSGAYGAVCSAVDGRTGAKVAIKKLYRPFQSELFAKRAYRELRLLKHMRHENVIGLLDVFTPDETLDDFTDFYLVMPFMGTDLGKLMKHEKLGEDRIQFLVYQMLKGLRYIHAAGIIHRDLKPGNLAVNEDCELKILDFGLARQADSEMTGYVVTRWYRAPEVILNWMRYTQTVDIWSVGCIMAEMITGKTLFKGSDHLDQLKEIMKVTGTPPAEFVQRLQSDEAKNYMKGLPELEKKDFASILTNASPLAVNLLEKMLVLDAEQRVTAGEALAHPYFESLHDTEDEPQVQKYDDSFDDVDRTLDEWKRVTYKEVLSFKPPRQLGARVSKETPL

Compound: COc1ccc(Cn2ccc3ccc(C(=O)NO)cc32)cc1
Assay: dose-dependent thermal stabilisation call (2D-TPP, DLPTP, 10% FDR) (binary (1 = stabilised)); higher = stabilised by the compound
Conditions: system: HL-60 intact cells; concentration range 0.04-10 µM

| Target | dose-dependent thermal stabilisation call |
| --- | --- |
| MFF (UniProt Q9GZY8) | inactive: 0 |
| MRPL55 (UniProt Q7Z7F7) | inactive: 0 |
| MRPS27 (UniProt Q92552) | inactive: 0 |
| MESDC2 (UniProt Q14696) | inactive: 0 |
| MEF2A (UniProt Q02078) | inactive: 0 |
| MBOAT1 (UniProt Q6ZNC8) | inactive: 0 |
| MAP7 (UniProt Q14244) | inactive: 0 |
| MMAB (UniProt Q96EY8) | inactive: 0 |
| MED12 (UniProt Q93074) | inactive: 0 |
| MRFAP1 (UniProt Q9Y605) | inactive: 0 |
| MLL (UniProt Q03164) | inactive: 0 |
| MRPL14 (UniProt Q6P1L8) | inactive: 0 |
| METTL10 (UniProt Q5JPI9) | inactive: 0 |
| MRPL52 (UniProt Q86TS9) | inactive: 0 |
| MRPS18C (UniProt Q9Y3D5) | inactive: 0 |
| MRPL32 (UniProt Q9BYC8) | inactive: 0 |
| MRPL2 (UniProt Q5T653) | inactive: 0 |
| MRPL9 (UniProt Q9BYD2) | inactive: 0 |
| MARK2 (UniProt Q7KZI7) | inactive: 0 |

Some of the entries above in a different format.
Target	dose-dependent thermal stabilisation call
MRPS27 (UniProt Q92552)	inactive: 0
MESDC2 (UniProt Q14696)	inactive: 0
MRFAP1 (UniProt Q9Y605)	inactive: 0

Remaining list, next part

| Target | dose-dependent thermal stabilisation call |
| --- | --- |
| MED31 (UniProt Q9Y3C7) | inactive: 0 |
| MAP4K2 (UniProt Q12851) | inactive: 0 |
| MLYCD (UniProt O95822) | inactive: 0 |
| MARVELD1 (UniProt Q9BSK0) | inactive: 0 |
| MFN2 (UniProt O95140) | inactive: 0 |
| MON1B (UniProt Q7L1V2) | inactive: 0 |
| MOSPD2 (UniProt Q8NHP6) | inactive: 0 |
| MGST1 (UniProt P10620) | inactive: 0 |
| METTL7A (UniProt Q9H8H3) | inactive: 0 |
| MRPL37 (UniProt Q9BZE1) | inactive: 0 |
| MPI (UniProt P34949) | inactive: 0 |
| METAP1 (UniProt P53582) | inactive: 0 |
| MRPL16 (UniProt Q9NX20) | inactive: 0 |
| MRPL48 (UniProt Q96GC5) | inactive: 0 |
| MRPL50 (UniProt Q8N5N7) | active: 1 |
| MAPK12 (UniProt P53778) | inactive: 0 |
| MRPL44 (UniProt Q9H9J2) | inactive: 0 |
| MOCS3 (UniProt O95396) | inactive: 0 |
| MITD1 (UniProt Q8WV92) | inactive: 0 |
